Experimental data: PubChem BioAssay AID504744 (Drosophila RNAi Screening Center, 2011)
The deposit covers about 23,000 reagents; this is a random part of those with a known target gene and a result. In the full data, 98 (0.43%) got an active call. 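Only hit calls are given; the phospho-dAkt signals, z-scores and hit direction were not deposited.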 Reagents against one gene are numbered here. Names joined by + are all predicted targets of the reagent.

- Aim: 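Uncover factors, including feedback loops, that control dAkt activation in fly cells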 (primary screen)
- System: Drosophila Kc167 cells
- Reagent: long dsRNA against Drosophila genes, 250 ng dsRNA per well of a 384-well plate
- Time to read-out: 3 days of knock-down, then overnight serum-free starvation before stimulation
- Conditions: bovine insulin at 387 nM for 10 minutes after 12 h without serum
- Measurement: 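Per-well phospho-dAkt level from an in-cell fluorescent antibody stain, divided by a DNA-dye signal; log2 residuals turned into z-scores that take cell number into account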
- Active means: 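Under insulin, a gene counts as a hit if the average z-score of two replicates lies above 2.5 or below -2.5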

The opening 18 records, ahead of the listing:
| Target gene | dsRNA no. | outcome |
| --- | --- | --- |
| CG5958 | 1 | inactive |
| CG5953 | 1 | inactive |
| CG5953 | 2 | inactive |
| CG42741 | 1 | inactive |
| CG42741 | 2 | inactive |
| dpy | 1 | inactive |
| dpy | 2 | inactive |
| dpy | 3 | inactive |
| Rpn12R | 1 | inactive |
| Cse1 | 1 | inactive |
| Apl | 1 | inactive |
| CG15370 | 1 | inactive |
| CG11034 | 1 | inactive |
| CG11034 | 2 | inactive |
| yellow-d2 | 1 | inactive |
| CG12299 | 1 | inactive |
| Gdh | 1 | inactive |
| CG4306 | 1 | inactive |

Results, from the start:
| Target gene | dsRNA no. | outcome |
| --- | --- | --- |
| CG5958 | 1 | inactive |
| CG5953 | 1 | inactive |
| CG5953 | 2 | inactive |
| CG42741 | 1 | inactive |
| CG42741 | 2 | inactive |
| dpy | 1 | inactive |
| dpy | 2 | inactive |
| dpy | 3 | inactive |
| Rpn12R | 1 | inactive |
| Cse1 | 1 | inactive |
| Apl | 1 | inactive |
| CG15370 | 1 | inactive |
| CG11034 | 1 | inactive |
| CG11034 | 2 | inactive |
| yellow-d2 | 1 | inactive |
| CG12299 | 1 | inactive |
| Gdh | 1 | inactive |
| CG4306 | 1 | inactive |
| Asap | 1 | inactive |
| Asap | 2 | inactive |
| Socs16D | 1 | inactive |
| JhI-26 | 1 | inactive |
| CG6567 + CG42394 | 1 | inactive |
| CG3036 | 1 | inactive |
| CG3036 | 2 | inactive |
| CG33288 | 1 | inactive |
| DNaseII | 1 | inactive |
| Gug | 1 | inactive |
| CG13454 | 1 | inactive |
| CG17440 | 1 | inactive |
| twit | 1 | inactive |
| PAN3 | 1 | inactive |
| Cpr49Ah | 1 | active |
| nst | 1 | inactive |
| CG13068 | 1 | inactive |
| bab2 | 1 | inactive |
| bab2 | 2 | inactive |
| mdy | 1 | inactive |
| mdy | 2 | inactive |
| CG30281 | 1 | inactive |
| CG11444 | 1 | inactive |
| ncm | 1 | inactive |
| His3.3A | 1 | inactive |
| Osi21 | 1 | inactive |
| Pstk + Tim9b | 1 | inactive |
| Pstk + Tim9b | 2 | inactive |
| tfc | 1 | inactive |
| tfc | 2 | inactive |
| tfc | 3 | inactive |
| tfc | 4 | inactive |
| chif | 1 | inactive |
| ATPsyndelta | 1 | inactive |
| CG15036 | 1 | inactive |
| CG32112 | 1 | inactive |
| CG14961 | 1 | inactive |
| CG31055 | 1 | inactive |
| Osi12 | 1 | inactive |
| CG31140 | 1 | inactive |
| CG31140 | 2 | inactive |
| CG31140 | 3 | inactive |
| betaTub85D | 1 | inactive |
| CG6834 | 1 | inactive |
| pbl | 1 | inactive |
| BOD1 | 1 | inactive |
| CG14369 | 1 | inactive |
| CG12460 (retired record) | 1 | inactive |
| NaCP60E | 1 | inactive |
| NaCP60E | 2 | inactive |
| Sema5c | 1 | inactive |
| ftz-f1 | 1 | inactive |
| Calx | 1 | inactive |
| Calx | 2 | inactive |
| Calx | 3 | inactive |
| Calx | 4 | inactive |
| Cyp6a13 | 1 | inactive |
| bt | 1 | inactive |
| bt | 2 | inactive |
| CG14805 | 1 | inactive |
| CG18766 | 1 | inactive |
| CG17375 | 1 | inactive |
| sp3 | 1 | inactive |
| eIF1 | 1 | inactive |
| TfIIA-S | 1 | inactive |
| PIG-U | 1 | inactive |
| M7BP | 1 | inactive |
| Nagk | 1 | inactive |
| Cpsf160 | 1 | inactive |
| CG5521 | 1 | inactive |
| CG15773 | 1 | inactive |
| CG10734 | 1 | inactive |
| Cln3 | 1 | inactive |
| Nep7 | 1 | inactive |
| GluRIID | 1 | inactive |
| dpr7 | 1 | inactive |
| CG7255 | 1 | inactive |
| CysRS-m | 1 | inactive |
| CG12498 | 1 | inactive |
| rau | 1 | inactive |
| Lint-O | 1 | inactive |
| CG13786 | 1 | inactive |
| Gas8 | 1 | inactive |
| CG42755 (retired record) | 1 | inactive |
| CG42755 (retired record) | 2 | inactive |
| ChAT | 1 | inactive |
| ChAT | 2 | inactive |
| ChAT | 3 | inactive |
| CG7730 | 1 | inactive |
| GCS1 | 1 | inactive |
| Start1 | 1 | inactive |
| yem | 1 | inactive |
| yem | 2 | inactive |
| CG17572 | 1 | inactive |
| CG33769 | 1 | inactive |
| Cdc5 | 1 | inactive |
| Hus1-like | 1 | inactive |
| CG1951 | 1 | inactive |
| meru | 1 | inactive |
| meru | 2 | inactive |
| meru | 3 | inactive |
| fon | 1 | inactive |
| roh | 1 | inactive |
| cry | 1 | inactive |
| Cpr50Cb | 1 | inactive |
| Agpat3 | 1 | inactive |
| CG43737 | 1 | inactive |
| CG3513 | 1 | inactive |
| GABA-B-R3 | 1 | inactive |
| RpS3 | 1 | inactive |
| mip120 | 1 | inactive |
| Sec63 | 1 | inactive |
| CG2082 | 1 | inactive |
| Duox | 1 | inactive |
| tun | 1 | inactive |
| tun | 2 | inactive |
| Drl-2 | 1 | inactive |
| Drl-2 | 2 | inactive |
| Drl-2 | 3 | inactive |
| CG18480 | 1 | inactive |
| CG6415 | 1 | inactive |
| Osi20 | 1 | inactive |
| snRNP-U1-70K | 1 | inactive |
| snRNP-U1-70K | 2 | inactive |
| srp | 1 | inactive |
| srp | 2 | inactive |
| U2af50 | 1 | inactive |
| U2af50 | 2 | inactive |
| Eglp3 | 1 | inactive |
| betaNACtes4 | 1 | inactive |
| CG12321 | 1 | inactive |
| CG7191 | 1 | inactive |
| CG4669 | 1 | inactive |
| Chd1 | 1 | inactive |
| PolA2 | 1 | inactive |
| Su(var)2-10 | 1 | inactive |
| CG13675 | 1 | inactive |
| CG13675 | 2 | inactive |
| RabGGTb | 1 | inactive |
